Assay results: paper PMC11615292, “Fast-diffusing receptor collisions with slow-diffusing peptide ligand assemble the ternary parathyroid hormone–GPCR–arrestin complex” (Nature Communications, 2024)
No constants are given. Whether binding was seen depends on the method and setting. For part of these data: In cells and extracts the contact can be indirect. Some binding calls cover weakened binding; strength is not graded here.

Protein sequences, listed by entry. Tags and fused reporters are not part of them. Residues count along the entry.
UniProt Q03431, residues 27-593: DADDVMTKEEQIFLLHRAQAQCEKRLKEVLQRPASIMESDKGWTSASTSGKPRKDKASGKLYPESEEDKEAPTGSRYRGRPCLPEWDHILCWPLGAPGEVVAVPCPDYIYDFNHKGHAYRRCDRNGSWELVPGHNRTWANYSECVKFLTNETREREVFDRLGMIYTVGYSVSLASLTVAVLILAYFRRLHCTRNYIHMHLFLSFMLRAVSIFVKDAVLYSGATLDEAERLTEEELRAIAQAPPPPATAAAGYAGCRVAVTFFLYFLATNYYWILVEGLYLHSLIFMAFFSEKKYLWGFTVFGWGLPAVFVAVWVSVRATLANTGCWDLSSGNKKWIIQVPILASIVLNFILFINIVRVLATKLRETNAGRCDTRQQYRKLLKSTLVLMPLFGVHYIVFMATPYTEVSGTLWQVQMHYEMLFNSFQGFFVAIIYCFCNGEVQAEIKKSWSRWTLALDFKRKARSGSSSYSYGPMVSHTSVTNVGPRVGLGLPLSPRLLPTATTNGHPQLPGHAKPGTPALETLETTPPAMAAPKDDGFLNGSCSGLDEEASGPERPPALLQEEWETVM
UniProt P32121: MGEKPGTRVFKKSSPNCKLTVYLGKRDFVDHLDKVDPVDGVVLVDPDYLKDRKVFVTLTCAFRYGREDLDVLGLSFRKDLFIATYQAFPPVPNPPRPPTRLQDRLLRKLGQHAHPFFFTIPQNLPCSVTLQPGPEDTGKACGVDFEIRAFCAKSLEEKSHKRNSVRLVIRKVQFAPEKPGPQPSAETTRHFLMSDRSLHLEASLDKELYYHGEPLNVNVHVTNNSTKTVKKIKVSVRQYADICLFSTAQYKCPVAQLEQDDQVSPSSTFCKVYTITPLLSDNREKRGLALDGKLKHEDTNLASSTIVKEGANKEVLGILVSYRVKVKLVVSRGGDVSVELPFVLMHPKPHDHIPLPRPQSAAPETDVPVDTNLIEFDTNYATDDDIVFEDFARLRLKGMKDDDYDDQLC

What was measured:
[1] = molecular target: PTH type 1 receptor C-terminally fused to iRFP670 (PTH1R^iRFP) (human) (UniProt Q03431); assay: dual-colour single-molecule coincidence detection (TIRF); live HEK293 cells co-expressing PTH1R^iRFP and βarr2^mNG or βarr2^PAmCherry (the latter in CLTA^mNG cells); stimulated with PTH (50 nM); coincidental detection within <80 nm
[2] = molecular target: PTH type 1 receptor C-terminally fused to CFP (PTH1R^CFP) (human) (UniProt Q03431); assay: FRET or BRET; single live HEK293 cells expressing PTH1R^CFP and βarr2^YFP; time courses under TIRF illumination in response to 10 nM PTH

Row | binding [2] | Substance | binding [1]
1 |  | β-arrestin 2 fused to mNeonGreen (βarr2^mNG) (from UniProt P32121 1-409) | binds
2 | binds | β-arrestin 2 fused to YFP (βarr2^YFP) (from UniProt P32121 1-409) | 
3 |  | β-arrestin 2 fused to photoactivatable mCherry1 (βarr2^PAmCherry) (from UniProt P32121 1-409) | binds
